The values below come from the supplement of paper PMC12889115.

Some of the results follow. Values are raw readings; no control value is given beside them.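 First-pass screen: polymyxin B was added at a level that permeabilizes the Salmonella outer membrane while sparing the inner membrane. DMSO wells, with and without polymyxin B, defined maximum growth. Because plates differed from one another, each plate's data were ranked separately and the compounds with the lowest OD600 were carried forward as hits.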

The assay concerns Salmonella enterica serovar Typhimurium SL1344. Briefly: bacterial growth OD600 after 18 h with compound and polymyxin B; higher = more bacterial growth (less inhibition). The note with it: 50 µM, Mueller-Hinton broth.

For `O=C1CCCN1CCCC(=O)N1CCCC(CCc2ccccc2F)C1` (stereo not given), the “bacterial growth OD600” value (polymyxin B 0.75 µg/mL) was found to be 0.801.
Regarding `O=C(CCc1cn2ccccc2n1)NC1CCCN(CC2CCCCC2)C1` (stereo not given), the “bacterial growth OD600” value (polymyxin B 1 µg/mL) is 1.21.
Still for that read-out and setting: the same measure for `O=C(CC(c1ccccc1)c1cccc(Cl)c1)NCCc1cnccn1` (stereo not given): 0.798; for `COc1ccc(C(=O)NCCCn2cccn2)cc1OC1CCN(C(C)=O)CC1`: 0.795.
As to `CN(CC1Cc2ccccc2O1)C(=O)CCC1(Cc2ccccc2)CCC(=O)N1` (stereo not given), the “bacterial growth OD600” value (polymyxin B 0.75 µg/mL) is 0.887.
Take `COc1ccc(C(=O)NCc2ccc(F)cc2)cc1OC1CCN(C(C)C)CC1`: the “bacterial growth OD600” value (polymyxin B 1 µg/mL) was found to be 0.948.
Still for that read-out and setting: the same measure for `COc1ccc(OC)c(CN2CCN(C3CCCCC3)C(CCO)C2)c1` (stereo not given): 0.948.
On to `CCOC(=O)CNC(=O)N1CCC(CCC(=O)N(C)Cc2ccccc2)CC1`, for which the “bacterial growth OD600” value (polymyxin B 1 µg/mL) is 0.961.
The same measure, in the same setting: the same measure for `O=C(Nc1ccnn1C1CCN(C(=O)Cn2cccn2)CC1)C1CCCC1`: 1.02; for `O=C(Nc1ccnn1C1CCN(Cc2cc3ccccc3s2)CC1)C1CC1`: 0.766.
Still for that read-out and setting: the same measure for `CCOc1ccc(CN2CCN(Cc3ccc(OC)c(C)c3C)C(CCO)C2)cc1CO` (stereo not given): 1.02.
As for `CCOc1cccc(CN2CCOc3ccc(CN4CCC(O)(c5cccnc5)CC4)cc3C2)c1`, the “bacterial growth OD600” value (polymyxin B 0.75 µg/mL) turned out to be 1.03.
`COc1ccc(OC2CCN(C3CCCC3)CC2)c(C(=O)NCCc2cn[nH]c2)c1`: under “polymyxin B 1 µg/mL”, the “bacterial growth OD600” value was determined as 0.915.
As to `COc1ccc(-c2nc(CN(Cc3ccccc3)C[C@@H]3CCC(=O)N3)c(C)o2)c(OC)c1C`, the “bacterial growth OD600” value (polymyxin B 1 µg/mL) came to 0.074.
On the same count and under the same terms, the same measure for `CC(=O)NCc1cccnc1N1CCCCCCC1`: 0.998.
Consider `CC(=O)N1CCN(c2ncccc2CNCc2ccc(-c3ccccc3)cc2)CC1`, for which the “bacterial growth OD600” value (polymyxin B 0.75 µg/mL) was determined as 0.707.
As to `CCN(Cc1ccccc1)c1nc(CNC(=O)Cn2nc(C)c3ccccc3c2=O)nc2ccccc12`, the “bacterial growth OD600” value (polymyxin B 0.75 µg/mL) was found to be 0.031.
With `CC(=O)N1CCC(N2CCC(Oc3ccc(C(=O)NC4CCCC4)cc3Cl)CC2)CC1`, the “bacterial growth OD600” value (polymyxin B 1 µg/mL) stood at 0.939.
For the compound `CC(=O)N1CCN(C(=O)CC(c2ccccc2)c2ccc(Cl)cc2)CC1` (stereo not given), the “bacterial growth OD600” value (polymyxin B 1 µg/mL) was 0.943.
With `O=C1CCN(c2ccccc2C(=O)N2CCC3(CC2)CC3C(=O)NCc2cccs2)C(=O)N1` (stereo not given), the “bacterial growth OD600” value (polymyxin B 0.75 µg/mL) came to 0.808.
For `CSc1ccccc1N1C(=O)CN(C(=O)C2CCCC2)CC1C` (stereo not given), the “bacterial growth OD600” value (polymyxin B 0.75 µg/mL) was 0.936.
Take `O=C(NC1CCCCC1)C1CCC(=O)N(C2CC2)C1` (stereo not given): under “polymyxin B 1 µg/mL”, the “bacterial growth OD600” value is 0.896.
Take `CN(Cc1ccncn1)C(=O)C1(N2CCCCC2)Cc2ccccc2C1`: the “bacterial growth OD600” value (polymyxin B 0.75 µg/mL) was 0.667.
On to `O=C(c1ccc(OC2CCN(CCc3ccccc3)CC2)cc1)N1CCN(CCO)CC1`, for which the “bacterial growth OD600” value (polymyxin B 1 µg/mL) was determined as 1.32.
Same read-out and setting: then `CC(=O)c1ccc(C(=O)N2CCCC(N3CCN(c4ccccc4C)CC3)C2)cc1` (stereo not given), with 0.837.
Take `COc1ccccc1CN1CCCC(CN(CCN(C)C)C(=O)c2cccs2)C1` (stereo not given): the “bacterial growth OD600” value (polymyxin B 0.75 µg/mL) was determined as 0.849.
As for `COC(=O)CCC(=O)N1CCCC(CCC(=O)Nc2ccc(OC)c(Cl)c2)C1` (stereo not given), the “bacterial growth OD600” value (polymyxin B 1 µg/mL) was 0.905.
Take `CC(=O)c1cc(C(=O)N2CCCC(CCc3ccc(F)cc3F)C2)[nH]n1` (stereo not given): the “bacterial growth OD600” value (polymyxin B 0.75 µg/mL) turned out to be 0.698.
As for `COc1cccc(NC(=O)N(C)CC2CCCN(CCc3ccccc3OC)C2)c1` (stereo not given), the “bacterial growth OD600” value (polymyxin B 1 µg/mL) amounted to 0.974.
Same read-out and setting: the same measure for `CCOC(=O)C1(Cc2ccccc2C(F)(F)F)CCN(C(=O)Cc2nonc2C)CC1`: 0.768.
